Measured values as given in paper PMC7015941.
These are yes or no findings as the source states them, for the method shown. Binding seen in cells or lysates may run through a third protein. Here binding means that the protein was enriched with, or labelled near, the bait; the list need not be complete.

The chains behind the UniProt entries cited, without tags or fusion partners.
UniProt O75832: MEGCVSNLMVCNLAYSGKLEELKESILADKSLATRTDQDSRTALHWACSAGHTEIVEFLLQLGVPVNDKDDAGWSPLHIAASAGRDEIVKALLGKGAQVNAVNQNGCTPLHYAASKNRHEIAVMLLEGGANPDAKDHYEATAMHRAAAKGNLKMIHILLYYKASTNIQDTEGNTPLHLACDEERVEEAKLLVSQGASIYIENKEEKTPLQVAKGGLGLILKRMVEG
UniProt P40763: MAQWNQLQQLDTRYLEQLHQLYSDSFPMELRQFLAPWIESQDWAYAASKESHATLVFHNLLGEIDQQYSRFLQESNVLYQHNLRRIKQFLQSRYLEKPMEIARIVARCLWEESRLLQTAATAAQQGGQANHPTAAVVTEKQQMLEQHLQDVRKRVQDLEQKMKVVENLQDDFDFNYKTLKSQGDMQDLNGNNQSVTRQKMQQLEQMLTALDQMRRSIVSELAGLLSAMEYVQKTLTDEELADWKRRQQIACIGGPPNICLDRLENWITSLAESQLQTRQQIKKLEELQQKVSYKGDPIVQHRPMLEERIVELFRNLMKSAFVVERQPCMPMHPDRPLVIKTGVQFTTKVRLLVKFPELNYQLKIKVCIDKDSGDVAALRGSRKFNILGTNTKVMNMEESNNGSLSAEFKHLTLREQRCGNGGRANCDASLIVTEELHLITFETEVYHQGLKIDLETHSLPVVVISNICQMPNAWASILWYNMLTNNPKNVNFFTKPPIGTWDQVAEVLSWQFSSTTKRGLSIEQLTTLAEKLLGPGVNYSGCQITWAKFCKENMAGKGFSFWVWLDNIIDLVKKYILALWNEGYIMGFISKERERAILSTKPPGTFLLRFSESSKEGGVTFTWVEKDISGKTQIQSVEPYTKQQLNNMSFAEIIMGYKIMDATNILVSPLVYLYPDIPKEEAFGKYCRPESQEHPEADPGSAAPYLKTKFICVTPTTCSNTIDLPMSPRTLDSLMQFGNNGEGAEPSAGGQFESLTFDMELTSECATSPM

Biological target: gankyrin (human (endogenous in 786-O)) (UniProt O75832)
Assay: affinity purification with mass spectrometry; gankyrin-interacting proteins identified by nano-LC-ESI-MS/MS; performed as in ref. 20; cells and way of isolation not stated

binding: binds
Substance: STAT3 (from UniProt P40763 1-770)
